Measurements published in paper PMC5324553.
These are yes or no findings as the source states them, for the method shown. Binding seen in cells or lysates may run through a third protein. Some results given as binding are weak or reduced against the parent protein; the word gives no strength. Where a sequence is shown, tags or fusion partners need not be part of it.

The chains behind the UniProt entries cited, without tags or fusion partners.
UniProt P29466: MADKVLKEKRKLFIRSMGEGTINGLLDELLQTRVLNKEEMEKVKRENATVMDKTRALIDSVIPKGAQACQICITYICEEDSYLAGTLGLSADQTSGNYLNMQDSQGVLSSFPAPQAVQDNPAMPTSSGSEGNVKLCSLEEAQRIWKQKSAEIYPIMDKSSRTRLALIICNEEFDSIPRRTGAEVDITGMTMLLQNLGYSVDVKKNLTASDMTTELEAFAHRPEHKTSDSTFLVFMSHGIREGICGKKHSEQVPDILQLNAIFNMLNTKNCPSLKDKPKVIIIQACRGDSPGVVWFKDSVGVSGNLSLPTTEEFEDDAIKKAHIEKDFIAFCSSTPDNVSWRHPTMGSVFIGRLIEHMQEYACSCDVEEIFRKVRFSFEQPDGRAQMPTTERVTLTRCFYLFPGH
UniProt Q9ULZ3: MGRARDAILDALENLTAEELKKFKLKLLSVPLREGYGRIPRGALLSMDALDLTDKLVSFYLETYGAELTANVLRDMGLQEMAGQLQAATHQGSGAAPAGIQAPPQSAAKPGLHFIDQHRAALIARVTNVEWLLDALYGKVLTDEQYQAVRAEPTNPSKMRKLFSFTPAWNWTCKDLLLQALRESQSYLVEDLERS
UniProt Q96P20: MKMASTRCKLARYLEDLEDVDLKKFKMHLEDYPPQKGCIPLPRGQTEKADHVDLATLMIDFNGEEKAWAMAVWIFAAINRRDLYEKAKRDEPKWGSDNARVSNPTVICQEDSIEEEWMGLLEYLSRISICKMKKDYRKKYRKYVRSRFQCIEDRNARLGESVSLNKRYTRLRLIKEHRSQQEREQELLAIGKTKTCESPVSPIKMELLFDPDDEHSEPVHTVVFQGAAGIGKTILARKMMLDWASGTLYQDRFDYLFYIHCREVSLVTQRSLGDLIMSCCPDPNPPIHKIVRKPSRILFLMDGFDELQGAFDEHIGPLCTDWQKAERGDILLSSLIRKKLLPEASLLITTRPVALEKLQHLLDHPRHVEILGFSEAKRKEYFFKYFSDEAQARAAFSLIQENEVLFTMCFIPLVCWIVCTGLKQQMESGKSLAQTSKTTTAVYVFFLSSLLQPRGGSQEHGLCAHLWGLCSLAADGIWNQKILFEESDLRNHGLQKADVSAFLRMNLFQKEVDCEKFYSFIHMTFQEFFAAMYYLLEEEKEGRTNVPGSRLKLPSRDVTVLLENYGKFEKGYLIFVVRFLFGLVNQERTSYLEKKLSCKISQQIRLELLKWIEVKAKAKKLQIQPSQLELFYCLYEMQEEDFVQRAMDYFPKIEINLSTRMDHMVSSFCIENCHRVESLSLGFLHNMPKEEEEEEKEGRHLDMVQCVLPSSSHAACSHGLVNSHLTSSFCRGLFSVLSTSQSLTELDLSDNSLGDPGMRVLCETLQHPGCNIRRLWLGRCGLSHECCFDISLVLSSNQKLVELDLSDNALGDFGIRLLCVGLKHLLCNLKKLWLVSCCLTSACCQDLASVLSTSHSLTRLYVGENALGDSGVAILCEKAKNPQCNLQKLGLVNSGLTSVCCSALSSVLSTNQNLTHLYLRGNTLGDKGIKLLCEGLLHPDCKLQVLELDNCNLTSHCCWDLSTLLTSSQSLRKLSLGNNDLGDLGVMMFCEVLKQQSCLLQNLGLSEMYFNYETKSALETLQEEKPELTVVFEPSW

Each substance was assayed against T1, Flag-USP50 (ubiquitin-specific peptidase 50) (UniProt Q70EL3) (assay: co-IP; HEK293 cells co-transfected with an HA-tagged inflammasome component and Flag-USP50; lysates immunoprecipitated with Flag antibody and immunoblotted).
T1 sequence: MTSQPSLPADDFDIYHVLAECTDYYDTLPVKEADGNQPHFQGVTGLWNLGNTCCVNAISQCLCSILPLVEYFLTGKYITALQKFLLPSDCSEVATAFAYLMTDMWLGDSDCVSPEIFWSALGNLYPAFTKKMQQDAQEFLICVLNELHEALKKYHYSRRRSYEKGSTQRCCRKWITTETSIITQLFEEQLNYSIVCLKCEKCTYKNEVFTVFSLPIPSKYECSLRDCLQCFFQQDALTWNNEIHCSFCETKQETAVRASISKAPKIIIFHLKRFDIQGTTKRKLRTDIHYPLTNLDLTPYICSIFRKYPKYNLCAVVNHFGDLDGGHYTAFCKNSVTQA
“HA-procaspase-1 (from UniProt P29466 1-404)” was tested, and the binding was “no binding”.
With “HA-ASC (apoptosis-associated speck-like protein containing a caspase activation and recruitment domain) (from UniProt Q9ULZ3 1-195)” the binding was “binds”.
With “HA-NLRP3 (NOD-like receptor family protein 3) (from UniProt Q96P20 1-1036)” the binding was “binds weakly”.
